Several values for one entry are separate records, joined by “and”; a condition that tells them apart may be missing. Identical values can stand only once. Some of the results follow. For some assays here: The source does not settle which construct or isoform was used.
Legend:
Experiment in all cases: protein microarray (ProtoArray v5.0), streptavidin-Alexa Fluor 647
Conditions in all cases: 3'-biotin; 20 mM Tris (pH 7.5), 5 mM MgCl2, 100 mM KCl, 0.1% Tween-20, A/T-rich and random oligonucleotide blockers; temperature not stated; high values mean tight binding
[1] = test system: TAK1-like protein (human)
TANK (human) = test system: TANK (human)
TAP2 (human) = test system: TAP2 (human)
TARP (human) = test system: TARP (human)
TAS2R43 (human) = test system: TAS2R43 (human)
[2] = test system: TBC1 domain family member 13 (human)
[3] = test system: TBC1 domain family member 9B (human)
TBC1D21 (human) = test system: TBC1D21 (human)
TBC1D7 (human) = test system: TBC1D7 (human)
TBC1D9B (human) = test system: TBC1D9B (human)
TBCB (human) = test system: TBCB (human)
TBCD (human) = test system: TBCD (human)
TBK1 = TBK1 (UniProt Q9UHD2)
TBL1X (human) = test system: TBL1X (human)
TBL2 (human) = test system: TBL2 (human)
TBXAS1 (human) = test system: TBXAS1 (human)
TCEB2 (human) = test system: TCEB2 (human)
TCP11 (human) = test system: TCP11 (human)
TCP11L1 (human) = test system: TCP11L1 (human)
TCTA (human) = test system: TCTA (human)

Amino acid sequences for entries named in this document (tags omitted). A change or cut given only in a name is not applied to a line headed by its entry.
UniProt Q9UHD2: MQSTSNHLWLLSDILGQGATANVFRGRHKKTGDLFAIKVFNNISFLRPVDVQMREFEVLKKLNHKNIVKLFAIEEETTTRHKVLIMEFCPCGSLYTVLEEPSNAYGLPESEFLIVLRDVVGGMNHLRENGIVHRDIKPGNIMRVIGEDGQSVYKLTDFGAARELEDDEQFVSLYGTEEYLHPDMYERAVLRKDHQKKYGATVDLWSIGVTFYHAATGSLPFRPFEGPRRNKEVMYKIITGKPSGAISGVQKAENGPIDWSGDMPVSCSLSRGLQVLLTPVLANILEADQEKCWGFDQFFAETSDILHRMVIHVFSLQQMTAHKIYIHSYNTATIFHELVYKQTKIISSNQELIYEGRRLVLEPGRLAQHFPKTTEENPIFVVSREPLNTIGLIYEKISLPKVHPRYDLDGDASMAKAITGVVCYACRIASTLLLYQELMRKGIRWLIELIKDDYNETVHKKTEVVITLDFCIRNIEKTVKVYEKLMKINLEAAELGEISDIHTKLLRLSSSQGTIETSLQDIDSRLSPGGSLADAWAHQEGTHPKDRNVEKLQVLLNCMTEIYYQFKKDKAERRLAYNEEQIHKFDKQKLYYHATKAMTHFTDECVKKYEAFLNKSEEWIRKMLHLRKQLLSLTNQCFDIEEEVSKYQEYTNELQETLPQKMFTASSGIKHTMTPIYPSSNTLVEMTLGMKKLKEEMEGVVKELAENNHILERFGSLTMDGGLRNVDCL

## GGGAGGCTGAGGCAGG [G4-1 biotinylated (PQS2)]
[1]
  binding signal: -0.334 z-score
TANK (human)
  binding signal: -0.334 z-score
TAP2 (human)
  binding signal: -0.327 z-score
TARP (human)
  binding signal: -0.275 z-score
TAS2R43 (human)
  binding signal: -0.252 z-score
[2]
  binding signal: -0.368 z-score
[3]
  binding signal: -0.237 z-score
TBC1D21 (human)
  binding signal: -0.348 z-score
TBC1D7 (human)
  binding signal: -0.342 z-score
TBC1D9B (human)
  binding signal: -0.364 z-score
TBCB (human)
  binding signal: -0.286 z-score
TBCD (human)
  binding signal: -0.348 z-score
TBK1
  binding signal: -0.325 z-score
TBL1X (human)
  binding signal: -0.357 z-score
TBL2 (human)
  binding signal: -0.32 z-score
TBXAS1 (human)
  binding signal: -0.283 z-score and -0.291 z-score
TCEB2 (human)
  binding signal: -0.287 z-score and -0.298 z-score
TCP11 (human)
  binding signal: -0.366 z-score
TCP11L1 (human)
  binding signal: -0.373 z-score
TCTA (human)
  binding signal: -0.332 z-score

— publication PMC5996148
